The supplement of paper PMC10849652
The list shows a part of the results.

The chains behind the UniProt entries cited, without tags or fusion partners. Where a name states a change or a piece, a line headed by the entry shows the natural chain unless it says otherwise.
UniProt Q9UHB9: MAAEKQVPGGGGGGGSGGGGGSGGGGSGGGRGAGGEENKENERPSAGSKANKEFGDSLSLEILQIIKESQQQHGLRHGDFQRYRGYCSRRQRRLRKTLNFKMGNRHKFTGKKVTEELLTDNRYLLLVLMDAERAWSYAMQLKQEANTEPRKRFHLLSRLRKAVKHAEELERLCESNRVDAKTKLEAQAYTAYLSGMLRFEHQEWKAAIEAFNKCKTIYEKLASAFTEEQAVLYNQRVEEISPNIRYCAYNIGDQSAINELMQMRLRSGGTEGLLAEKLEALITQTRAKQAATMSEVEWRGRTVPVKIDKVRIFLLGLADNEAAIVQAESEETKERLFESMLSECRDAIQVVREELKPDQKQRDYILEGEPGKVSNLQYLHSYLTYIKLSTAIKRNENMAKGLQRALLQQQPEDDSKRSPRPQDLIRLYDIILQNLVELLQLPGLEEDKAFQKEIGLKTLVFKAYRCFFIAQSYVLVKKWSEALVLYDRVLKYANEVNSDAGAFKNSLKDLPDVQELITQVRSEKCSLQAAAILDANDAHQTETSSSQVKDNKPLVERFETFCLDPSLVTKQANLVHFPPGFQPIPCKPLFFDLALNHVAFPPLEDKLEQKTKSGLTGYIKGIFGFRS
UniProt Q92783: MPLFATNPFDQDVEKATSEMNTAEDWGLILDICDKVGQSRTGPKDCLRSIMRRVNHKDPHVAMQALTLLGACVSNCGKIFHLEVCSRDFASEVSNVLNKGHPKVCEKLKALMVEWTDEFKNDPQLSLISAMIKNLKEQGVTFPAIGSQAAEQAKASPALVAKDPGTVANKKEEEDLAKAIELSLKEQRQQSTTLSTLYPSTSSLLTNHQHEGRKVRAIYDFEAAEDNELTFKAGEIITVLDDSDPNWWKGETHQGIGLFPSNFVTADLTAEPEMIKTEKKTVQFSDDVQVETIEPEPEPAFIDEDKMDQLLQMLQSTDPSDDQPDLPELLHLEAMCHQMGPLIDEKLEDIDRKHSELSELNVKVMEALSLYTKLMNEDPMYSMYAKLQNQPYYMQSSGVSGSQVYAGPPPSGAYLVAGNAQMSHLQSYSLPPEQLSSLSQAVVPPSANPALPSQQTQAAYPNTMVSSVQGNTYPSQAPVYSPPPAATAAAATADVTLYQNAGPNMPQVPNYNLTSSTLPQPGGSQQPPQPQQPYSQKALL
UniProt Q9H254, whole entry, looked up: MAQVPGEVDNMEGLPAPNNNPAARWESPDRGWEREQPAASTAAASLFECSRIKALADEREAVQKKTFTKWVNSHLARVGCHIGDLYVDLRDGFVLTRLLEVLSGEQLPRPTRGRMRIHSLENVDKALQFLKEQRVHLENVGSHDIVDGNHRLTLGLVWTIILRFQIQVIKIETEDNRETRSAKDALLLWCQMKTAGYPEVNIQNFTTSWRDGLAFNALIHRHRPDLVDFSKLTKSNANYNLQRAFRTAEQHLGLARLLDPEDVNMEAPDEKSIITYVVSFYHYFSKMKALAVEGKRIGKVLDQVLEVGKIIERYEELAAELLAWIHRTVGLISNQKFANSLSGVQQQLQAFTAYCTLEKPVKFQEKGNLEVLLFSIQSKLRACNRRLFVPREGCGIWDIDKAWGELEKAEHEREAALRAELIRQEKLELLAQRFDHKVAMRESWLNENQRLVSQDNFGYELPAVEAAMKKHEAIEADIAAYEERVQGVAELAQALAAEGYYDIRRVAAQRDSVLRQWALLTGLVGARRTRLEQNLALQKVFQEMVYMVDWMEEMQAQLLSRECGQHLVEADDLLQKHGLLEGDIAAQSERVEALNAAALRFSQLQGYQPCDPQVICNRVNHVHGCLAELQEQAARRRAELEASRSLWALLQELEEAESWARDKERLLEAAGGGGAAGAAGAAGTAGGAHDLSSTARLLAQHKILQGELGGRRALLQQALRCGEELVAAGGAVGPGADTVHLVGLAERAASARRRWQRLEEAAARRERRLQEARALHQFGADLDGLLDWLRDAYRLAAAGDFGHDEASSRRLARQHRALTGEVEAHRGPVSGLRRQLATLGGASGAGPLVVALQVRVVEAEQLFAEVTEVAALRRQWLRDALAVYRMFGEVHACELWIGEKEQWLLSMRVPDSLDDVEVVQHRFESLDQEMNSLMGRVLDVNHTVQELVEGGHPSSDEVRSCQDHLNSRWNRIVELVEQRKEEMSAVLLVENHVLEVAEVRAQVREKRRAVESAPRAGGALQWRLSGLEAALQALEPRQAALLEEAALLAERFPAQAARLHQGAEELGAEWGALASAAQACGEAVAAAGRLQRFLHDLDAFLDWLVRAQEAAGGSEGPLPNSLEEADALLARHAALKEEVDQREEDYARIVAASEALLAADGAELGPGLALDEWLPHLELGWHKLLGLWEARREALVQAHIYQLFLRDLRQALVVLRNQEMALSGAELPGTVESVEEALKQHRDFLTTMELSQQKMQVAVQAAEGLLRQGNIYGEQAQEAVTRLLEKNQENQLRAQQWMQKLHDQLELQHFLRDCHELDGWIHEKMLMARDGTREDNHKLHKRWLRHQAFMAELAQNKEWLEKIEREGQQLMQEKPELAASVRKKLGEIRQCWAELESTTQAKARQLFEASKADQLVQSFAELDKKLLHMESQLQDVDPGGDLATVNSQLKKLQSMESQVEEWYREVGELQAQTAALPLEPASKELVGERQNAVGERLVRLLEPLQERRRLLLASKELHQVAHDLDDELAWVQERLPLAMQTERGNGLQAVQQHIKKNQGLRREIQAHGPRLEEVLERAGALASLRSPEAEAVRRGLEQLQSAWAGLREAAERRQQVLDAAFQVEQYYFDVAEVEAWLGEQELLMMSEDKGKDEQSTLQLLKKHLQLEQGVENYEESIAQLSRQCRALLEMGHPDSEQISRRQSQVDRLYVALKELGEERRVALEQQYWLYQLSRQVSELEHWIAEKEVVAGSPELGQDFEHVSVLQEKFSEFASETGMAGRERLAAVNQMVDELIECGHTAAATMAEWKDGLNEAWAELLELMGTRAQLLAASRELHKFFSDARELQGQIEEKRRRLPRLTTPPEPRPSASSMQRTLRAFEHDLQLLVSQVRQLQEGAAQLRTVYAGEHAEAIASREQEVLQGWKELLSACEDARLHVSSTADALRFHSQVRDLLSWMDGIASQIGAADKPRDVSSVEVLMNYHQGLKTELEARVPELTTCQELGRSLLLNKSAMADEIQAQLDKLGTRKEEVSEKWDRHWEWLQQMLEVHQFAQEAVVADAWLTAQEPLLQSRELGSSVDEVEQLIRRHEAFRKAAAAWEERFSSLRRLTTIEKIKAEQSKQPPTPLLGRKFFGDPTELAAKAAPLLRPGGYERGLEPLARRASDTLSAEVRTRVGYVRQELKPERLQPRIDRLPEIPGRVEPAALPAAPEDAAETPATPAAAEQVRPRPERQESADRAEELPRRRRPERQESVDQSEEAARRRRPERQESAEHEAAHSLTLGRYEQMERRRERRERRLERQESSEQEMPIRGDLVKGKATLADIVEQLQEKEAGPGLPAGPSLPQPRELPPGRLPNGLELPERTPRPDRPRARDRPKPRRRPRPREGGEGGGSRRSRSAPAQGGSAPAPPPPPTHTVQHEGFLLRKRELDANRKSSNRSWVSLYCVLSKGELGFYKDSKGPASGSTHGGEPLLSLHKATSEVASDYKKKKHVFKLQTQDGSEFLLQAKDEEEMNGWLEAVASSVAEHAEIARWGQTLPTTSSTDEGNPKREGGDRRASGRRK
UniProt Q08170: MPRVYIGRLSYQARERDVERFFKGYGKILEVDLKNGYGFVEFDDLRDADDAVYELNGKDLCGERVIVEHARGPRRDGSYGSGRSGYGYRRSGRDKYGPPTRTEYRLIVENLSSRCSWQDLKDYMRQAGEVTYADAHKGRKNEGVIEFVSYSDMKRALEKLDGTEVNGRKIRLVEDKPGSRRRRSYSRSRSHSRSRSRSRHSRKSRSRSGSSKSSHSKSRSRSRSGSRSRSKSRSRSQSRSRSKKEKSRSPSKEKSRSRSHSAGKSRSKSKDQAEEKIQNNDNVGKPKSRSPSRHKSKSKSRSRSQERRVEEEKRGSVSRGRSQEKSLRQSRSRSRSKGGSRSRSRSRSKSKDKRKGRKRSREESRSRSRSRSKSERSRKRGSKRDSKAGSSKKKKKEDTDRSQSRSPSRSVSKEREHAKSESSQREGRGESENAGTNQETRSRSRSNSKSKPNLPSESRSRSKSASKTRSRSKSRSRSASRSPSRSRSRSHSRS
UniProt Q8NEF9: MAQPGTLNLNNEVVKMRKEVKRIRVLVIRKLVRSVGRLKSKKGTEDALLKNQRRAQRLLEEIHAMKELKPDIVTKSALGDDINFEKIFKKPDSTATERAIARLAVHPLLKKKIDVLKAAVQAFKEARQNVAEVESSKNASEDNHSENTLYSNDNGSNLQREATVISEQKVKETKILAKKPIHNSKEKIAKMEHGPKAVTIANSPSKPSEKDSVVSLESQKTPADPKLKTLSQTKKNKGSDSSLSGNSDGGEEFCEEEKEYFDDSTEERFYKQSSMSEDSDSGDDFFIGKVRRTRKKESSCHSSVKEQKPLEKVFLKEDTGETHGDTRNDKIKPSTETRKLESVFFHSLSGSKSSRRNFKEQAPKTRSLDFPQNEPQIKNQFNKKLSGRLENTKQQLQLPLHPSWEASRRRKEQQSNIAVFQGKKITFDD
UniProt P51692: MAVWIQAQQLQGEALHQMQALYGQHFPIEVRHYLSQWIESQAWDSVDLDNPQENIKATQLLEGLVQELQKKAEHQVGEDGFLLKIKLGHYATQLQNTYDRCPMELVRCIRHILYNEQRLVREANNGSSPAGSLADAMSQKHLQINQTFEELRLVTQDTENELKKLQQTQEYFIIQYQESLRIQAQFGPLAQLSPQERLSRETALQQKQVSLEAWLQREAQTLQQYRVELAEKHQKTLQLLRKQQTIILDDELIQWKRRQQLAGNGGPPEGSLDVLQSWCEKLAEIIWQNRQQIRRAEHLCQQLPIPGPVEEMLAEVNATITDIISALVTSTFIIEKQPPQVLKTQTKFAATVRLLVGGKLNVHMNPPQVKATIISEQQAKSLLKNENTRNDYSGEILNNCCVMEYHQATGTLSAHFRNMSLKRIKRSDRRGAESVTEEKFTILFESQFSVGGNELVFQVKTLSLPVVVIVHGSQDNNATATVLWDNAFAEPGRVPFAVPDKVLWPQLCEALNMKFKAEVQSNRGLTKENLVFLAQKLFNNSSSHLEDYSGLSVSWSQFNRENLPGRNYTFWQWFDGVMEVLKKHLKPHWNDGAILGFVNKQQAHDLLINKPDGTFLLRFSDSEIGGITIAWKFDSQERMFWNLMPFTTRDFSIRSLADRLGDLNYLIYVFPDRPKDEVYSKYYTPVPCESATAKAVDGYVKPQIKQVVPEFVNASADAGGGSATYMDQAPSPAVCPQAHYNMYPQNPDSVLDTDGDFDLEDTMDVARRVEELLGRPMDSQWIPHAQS
UniProt P61009: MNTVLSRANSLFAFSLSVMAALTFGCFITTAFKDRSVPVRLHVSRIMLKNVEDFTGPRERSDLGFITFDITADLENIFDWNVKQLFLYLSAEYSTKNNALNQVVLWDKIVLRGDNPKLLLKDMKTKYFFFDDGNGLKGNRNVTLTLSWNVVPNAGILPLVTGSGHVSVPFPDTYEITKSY
UniProt P30626: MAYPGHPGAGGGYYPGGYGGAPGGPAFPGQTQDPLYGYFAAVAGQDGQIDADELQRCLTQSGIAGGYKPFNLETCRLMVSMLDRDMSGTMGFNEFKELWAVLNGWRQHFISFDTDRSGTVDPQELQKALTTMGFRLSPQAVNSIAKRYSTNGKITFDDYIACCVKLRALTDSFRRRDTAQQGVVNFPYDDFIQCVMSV
UniProt O15269: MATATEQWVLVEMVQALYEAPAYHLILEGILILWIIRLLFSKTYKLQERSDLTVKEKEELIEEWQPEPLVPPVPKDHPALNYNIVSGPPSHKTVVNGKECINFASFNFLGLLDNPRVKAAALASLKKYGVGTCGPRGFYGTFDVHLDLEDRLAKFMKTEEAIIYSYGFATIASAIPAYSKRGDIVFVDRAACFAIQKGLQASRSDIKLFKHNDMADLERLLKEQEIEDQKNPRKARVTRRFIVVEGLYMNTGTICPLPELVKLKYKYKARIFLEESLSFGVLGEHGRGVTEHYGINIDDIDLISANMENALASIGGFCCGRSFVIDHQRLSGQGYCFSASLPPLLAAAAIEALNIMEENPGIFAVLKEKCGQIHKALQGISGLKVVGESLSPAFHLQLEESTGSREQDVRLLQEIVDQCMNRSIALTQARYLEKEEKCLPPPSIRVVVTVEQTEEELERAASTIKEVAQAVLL
UniProt Q13243: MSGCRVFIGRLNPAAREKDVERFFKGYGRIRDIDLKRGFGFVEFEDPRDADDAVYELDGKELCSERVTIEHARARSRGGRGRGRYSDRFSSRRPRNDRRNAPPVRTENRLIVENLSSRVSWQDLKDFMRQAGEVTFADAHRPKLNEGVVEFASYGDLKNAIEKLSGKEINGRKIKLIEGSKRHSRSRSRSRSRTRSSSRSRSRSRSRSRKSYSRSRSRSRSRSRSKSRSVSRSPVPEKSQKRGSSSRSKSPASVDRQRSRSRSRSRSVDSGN

Assays:
Assay in all cases: log2 fold change, soluble protein after heating vs DMSO (PISA); higher = thermal stabilisation; K562 lysate, 10 uM; active = over 0.2 and 3.5 SD of the protein, either way, in both replicates (recomputed)
vemurafenib = compound: CCCS(=O)(=O)Nc1ccc(F)c(C(=O)c2c[nH]c3ncc(-c4ccc(Cl)cc4)cc23)c1F [vemurafenib]
Summary of the method: (§1)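 Quantification was by TMTpro 16plex LC-MS/MS with equalised channel sums, applied to the supernatant after 21,000xg for 90 min. Samples were crude K562 extract at 1 mg/mL protein in PBS pH 7.4 with 1 mM MgCl2, treated with 10 μM compound for 30 min, heated for 3 min across 48°C-58°C, pooled and brought to 0.5% NP-40 at 4°C. Values are log-two fold changes in thermal stability relative to solvent controls, from duplicates.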

[1] = compound: CCCS(=O)(=O)Nc1ccc(F)c(C(=O)c2c[nH]c3ncc(Cl)cc23)c1F
Summary of the method: as §1

barasertib = compound: CCN(CCCOc1ccc2c(Nc3cc(CC(=O)Nc4cccc(F)c4)[nH]n3)ncnc2c1)CCOP(=O)(O)O [barasertib]
Summary of the method: as §1

[2] = compound: CC[C@@H]1C(=O)N(C)c2cnc(Nc3ccc(C(=O)NC4CCN(C)CC4)cc3OC)nc2N1C1CCCC1
Summary of the method: as §1

volasertib = compound: CC[C@@H]1C(=O)N(C)c2cnc(Nc3ccc(C(=O)N[C@H]4CC[C@H](N5CCN(CC6CC6)CC5)CC4)cc3OC)nc2N1C(C)C [volasertib]
Summary of the method: as §1

[3] = compound: CCn1c(C(=O)N(C2CC2)C2CC2)cc2c3c(ncn3C)c(Nc3cc(C)n(C)n3)nc21
Summary of the method: as §1

[4] = compound: CCn1cc(-c2ccnc3[nH]c(-c4cccc(CN(C)C)c4)cc23)c(-c2ccc(NC(=O)N(C)C)cc2)n1
Summary of the method: as §1

[5] = compound: CN1CCC(CNc2ccc3ncc(-c4cccc(OC(F)(F)F)c4)n3n2)CC1
Summary of the method: as §1

saracatinib = compound: CN1CCN(CCOc2cc(OC3CCOCC3)c3c(Nc4c(Cl)ccc5c4OCO5)ncnc3c2)CC1 [saracatinib]
Summary of the method: as §1

sotrastaurin = compound: CN1CCN(c2nc(C3=C(c4c[nH]c5ccccc45)C(=O)NC3=O)c3ccccc3n2)CC1 [sotrastaurin]
Summary of the method: as §1

alvocidib = compound: CN1CC[C@H](c2c(O)cc(O)c3c(=O)cc(-c4ccccc4Cl)oc23)[C@H](O)C1 [alvocidib]
Summary of the method: as §1

Tubastatin A = compound: CN1CCc2c(c3ccccc3n2Cc2ccc(C(=O)NO)cc2)C1 [Tubastatin A]
Summary of the method: as §1

[6] = compound: CNC(=O)C1=CC=CC=C1NC2=NC(=NC=C2Cl)NC3=C(C=C(C=C3)N4CCOCC4)OC
Summary of the method: as §1

defactinib = compound: CNC(=O)c1ccc(Nc2ncc(C(F)(F)F)c(NCc3nccnc3N(C)S(C)(=O)=O)n2)cc1 [defactinib]
Summary of the method: as §1

[7] = compound: CNc1nc(-c2ccc3c(N)n[nH]c3c2)cc(N2C[C@@H](C(=O)NC3CCCCC3)CC[C@H]2C)n1
Summary of the method: as §1

encorafenib = compound: COC(=O)N[C@@H](C)CNc1nccc(-c2cn(C(C)C)nc2-c2cc(Cl)cc(NS(C)(=O)=O)c2F)n1 [encorafenib]
Summary of the method: as §1

[8] = compound: COC(=O)[C@H](CCSC)NC(=O)C1=C(C=C(C=C1)NC[C@H](CS)N)C2=CC=CC=C2
Summary of the method: as §1

alisertib = compound: COc1cc(Nc2ncc3c(n2)-c2ccc(Cl)cc2C(c2c(F)cccc2OC)=NC3)ccc1C(=O)O [alisertib]
Summary of the method: as §1

[9] = compound: COc1cc2nc(-c3cc(F)ccc3O)nc(N[C@@H]3CNC[C@H]3C(C)(C)O)c2cc1OC
Summary of the method: as §1

gefitinib = compound: COc1cc2ncnc(Nc3ccc(F)c(Cl)c3)c2cc1OCCCN1CCOCC1 [gefitinib]
Summary of the method: as §1

Measured: log2 fold change

SRP68 (UniProt Q9UHB9)
inactive: vemurafenib 0.028 | [1] 0.016 | barasertib 0.017 | [2] 0.029 | volasertib -0.022 | [3] -0.001 | [4] 0.178 | [5] -0.173 | saracatinib -0.005 | sotrastaurin 0.019 | alvocidib 0.068 | Tubastatin A -0.034 | [6] -0.009 | defactinib 0.053 | [7] -0.006 | encorafenib 0.048 | [8] 0.011 | alisertib -0.019 | [9] 0.019 | gefitinib -0.013

STAM (UniProt Q92783)
inactive: vemurafenib 0.002 | [1] -0.022 | barasertib -0.036 | [2] 0.013 | volasertib 0.036 | [3] 0.029 | [4] -0.028 | [5] 0.039 | saracatinib 0.005 | sotrastaurin 0.004 | alvocidib 0.006 | Tubastatin A 0.023 | [6] 0.016 | defactinib -0.033 | [7] 0.015 | encorafenib 0.003 | [8] -0.043 | alisertib -0.023 | [9] -0.007 | gefitinib -0.017

SPTBN4 (UniProt Q9H254)
inactive: vemurafenib -0.053 | [1] -0.017 | barasertib -0.107 | [2] 0.001 | volasertib 0.011 | [3] -0.112 | [4] -0.012 | [5] -0.019 | saracatinib 0.021 | sotrastaurin 0.032 | alvocidib -0.009 | Tubastatin A 0.131 | [6] 0.038 | defactinib -0.104 | [7] 0.074 | encorafenib 0.021 | [8] -0.105 | alisertib 0.077 | [9] -0.067 | gefitinib -0.017

SRSF4 (UniProt Q08170)
inactive: vemurafenib -0.048 | [1] -0.035 | barasertib -0.048 | [2] -0.192 | volasertib -0.014 | [3] 0.036 | [4] 0.085 | [5] -0.061 | saracatinib -0.018 | sotrastaurin 0.011 | alvocidib 0.022 | Tubastatin A -0.04 | [6] -0.041 | defactinib -0.003 | [7] -0.127 | encorafenib 0.092 | [8] -0.03 | alisertib 0 | [9] -0.016 | gefitinib 0.01

SRSF6 (UniProt Q13247)
inactive: vemurafenib -0.141 | [1] -0.014 | barasertib 0.015 | [2] -0.021 | volasertib 0.015 | [3] 0.103 | [4] 0.224 | [5] -0.097 | saracatinib 0.021 | sotrastaurin 0.022 | alvocidib 0.076 | Tubastatin A 0.022 | [6] -0.026 | defactinib 0.044 | [7] -0.01 | encorafenib -0.001 | [8] -0.016 | alisertib -0.1 | [9] 0.004 | gefitinib -0.026

SRFBP1 (UniProt Q8NEF9)
inactive: vemurafenib -0.004 | [1] 0.012 | barasertib 0 | [2] 0.012 | volasertib -0.004 | [3] -0.014 | [4] 0.008 | [5] 0.058 | saracatinib 0.081 | sotrastaurin -0.007 | alvocidib -0.071 | Tubastatin A 0.03 | [6] 0.034 | defactinib 0.071 | [7] 0.143 | encorafenib 0.035 | [8] 0.023 | alisertib 0.006 | [9] 0.013 | gefitinib 0.09

Random excerpt: two entries already listed.
SRSF6 (UniProt Q13247)
inactive: vemurafenib -0.141 | [1] -0.014 | barasertib 0.015 | [2] -0.021 | volasertib 0.015 | [3] 0.103 | [4] 0.224 | [5] -0.097 | saracatinib 0.021 | sotrastaurin 0.022 | alvocidib 0.076 | Tubastatin A 0.022 | [6] -0.026 | defactinib 0.044 | [7] -0.01 | encorafenib -0.001 | [8] -0.016 | alisertib -0.1 | [9] 0.004 | gefitinib -0.026

SRSF4 (UniProt Q08170)
inactive: vemurafenib -0.048 | [1] -0.035 | barasertib -0.048 | [2] -0.192 | volasertib -0.014 | [3] 0.036 | [4] 0.085 | [5] -0.061 | saracatinib -0.018 | sotrastaurin 0.011 | alvocidib 0.022 | Tubastatin A -0.04 | [6] -0.041 | defactinib -0.003 | [7] -0.127 | encorafenib 0.092 | [8] -0.03 | alisertib 0 | [9] -0.016 | gefitinib 0.01

The list continues.

SSR4 (UniProt P51571)
inactive: vemurafenib 0.052 | [1] -0.015 | barasertib 0.071 | [2] 0.019 | volasertib 0.017 | [3] -0.022 | [4] -0.011 | [5] 0.047 | saracatinib 0.004 | sotrastaurin -0.027 | alvocidib 0.024 | Tubastatin A 0.022 | [6] -0.019 | defactinib 0.019 | [7] 0.002 | encorafenib -0.034 | [8] 0 | alisertib -0.018 | [9] 0.011 | gefitinib -0.061

STAT5B (UniProt P51692)
inactive: vemurafenib 0.039 | [1] 0.01 | barasertib 0.059 | [2] 0.002 | volasertib -0.064 | [3] -0.017 | [4] -0.068 | [5] -0.051 | saracatinib -0.014 | sotrastaurin 0.004 | alvocidib -0.041 | Tubastatin A -0.085 | [6] 0.039 | defactinib 0.035 | [7] 0.048 | encorafenib 0.001 | [8] 0.065 | alisertib 0.023 | [9] -0.003 | gefitinib 0.016

SPCS3 (UniProt P61009)
inactive: vemurafenib -0.001 | [1] -0.046 | barasertib -0.006 | [2] -0.026 | volasertib 0.014 | [3] 0.09 | [4] 0.024 | [5] -0.076 | saracatinib -0.012 | sotrastaurin 0.001 | alvocidib 0 | Tubastatin A 0.018 | [6] -0.066 | defactinib 0.025 | [7] -0.111 | encorafenib 0.035 | [8] -0.008 | alisertib -0.043 | [9] -0.039 | gefitinib 0.083

SRI (UniProt P30626)
inactive: vemurafenib -0.013 | [1] -0.001 | barasertib 0.041 | [2] -0.016 | volasertib 0.085 | [3] -0.001 | [4] 0.01 | [5] -0.061 | saracatinib 0.006 | sotrastaurin -0.056 | alvocidib 0.096 | Tubastatin A 0.066 | [6] 0.057 | defactinib 0.128 | [7] 0.053 | encorafenib 0.029 | [8] -0.011 | alisertib 0.064 | [9] -0.035 | gefitinib -0.191

SPTLC1 (UniProt O15269)
inactive: vemurafenib 0.016 | [1] -0.017 | barasertib 0.005 | [2] 0.038 | volasertib 0.001 | [3] -0.009 | [4] -0.029 | [5] -0.028 | saracatinib 0.035 | sotrastaurin -0.014 | alvocidib -0.034 | Tubastatin A -0.02 | [6] -0.01 | defactinib 0.003 | [7] 0 | encorafenib 0.033 | [8] -0.048 | alisertib 0.029 | [9] 0.026 | gefitinib -0.039

STAMBP (UniProt O95630)
inactive: vemurafenib 0.003 | [1] -0.025 | barasertib -0.004 | [2] -0.019 | volasertib 0.002 | [3] -0.026 | [4] 0.148 | [5] 0.01 | saracatinib 0.031 | sotrastaurin 0.049 | alvocidib 0.022 | Tubastatin A 0.004 | [6] 0.004 | defactinib 0.001 | [7] 0.002 | encorafenib -0.004 | [8] 0.02 | alisertib -0.017 | [9] -0.015 | gefitinib 0.001

SRSF5 (UniProt Q13243)
inactive: vemurafenib 0.021 | [1] 0.006 | barasertib -0.027 | [2] -0.035 | volasertib 0.02 | [3] -0.03 | [4] -0.027 | [5] 0.053 | saracatinib 0.009 | sotrastaurin 0.048 | alvocidib -0.022 | Tubastatin A 0.019 | [6] 0.018 | defactinib -0.038 | [7] 0.002 | encorafenib -0.009 | [8] -0.004 | alisertib 0.009 | [9] -0.005 | gefitinib 0.028

SPG11 (UniProt Q96JI7)
inactive: vemurafenib 0.084 | [1] -0.011 | barasertib 0.006 | [2] -0.042 | volasertib -0.037 | [3] -0.05 | [4] 0.06 | [5] -0.13 | saracatinib 0.077 | sotrastaurin 0.007 | alvocidib 0.161 | Tubastatin A -0.129 | [6] -0.058 | defactinib -0.015 | [7] -0.003 | encorafenib 0.049 | [8] 0.088 | alisertib -0.041 | [9] 0.07 | gefitinib -0.024

STAM2 (UniProt O75886)
inactive: vemurafenib 0 | [1] 0.017 | barasertib -0.033 | [2] 0.06 | volasertib -0.006 | [3] 0.017 | [4] -0.012 | [5] 0.01 | saracatinib 0.031 | sotrastaurin -0.032 | alvocidib -0.002 | Tubastatin A 0.042 | [6] 0.023 | defactinib -0.006 | [7] -0.015 | encorafenib 0.039 | [8] -0.001 | alisertib -0.006 | [9] 0.001 | gefitinib -0.015
